From publication PMC6018636, “Mutually exclusive acetylation and ubiquitylation of the splicing factor SRSF5 control tumor growth” (Nature Communications, 2018)
Results are given in words; binding and its absence hold for the method and conditions named. Binding seen in cells or lysates may run through a third protein. A yes stands for co-enrichment or nearness to the bait. Other partners may have been found. Sequences can lack the tags named with a protein. Values belong to the molecule of their own block, whether it stands above or below them.

The chains behind the UniProt entries cited, without tags or fusion partners.
UniProt P62820: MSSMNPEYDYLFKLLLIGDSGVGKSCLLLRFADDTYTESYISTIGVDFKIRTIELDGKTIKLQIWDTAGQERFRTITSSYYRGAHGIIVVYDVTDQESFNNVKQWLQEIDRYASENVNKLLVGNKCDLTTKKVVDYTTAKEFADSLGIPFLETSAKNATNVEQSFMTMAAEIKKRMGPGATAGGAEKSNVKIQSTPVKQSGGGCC
UniProt Q9H0U4: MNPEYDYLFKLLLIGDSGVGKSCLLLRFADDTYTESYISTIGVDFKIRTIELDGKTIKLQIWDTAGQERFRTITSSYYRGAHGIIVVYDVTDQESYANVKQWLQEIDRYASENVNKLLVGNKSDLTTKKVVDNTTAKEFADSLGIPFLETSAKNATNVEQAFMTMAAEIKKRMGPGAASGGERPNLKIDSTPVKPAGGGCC
UniProt P09429: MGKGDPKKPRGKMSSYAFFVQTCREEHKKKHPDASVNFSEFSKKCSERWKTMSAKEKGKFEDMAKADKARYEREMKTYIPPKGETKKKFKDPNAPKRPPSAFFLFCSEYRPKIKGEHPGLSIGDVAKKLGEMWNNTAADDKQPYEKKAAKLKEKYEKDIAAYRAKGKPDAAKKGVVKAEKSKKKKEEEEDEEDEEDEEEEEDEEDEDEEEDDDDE
UniProt P98175: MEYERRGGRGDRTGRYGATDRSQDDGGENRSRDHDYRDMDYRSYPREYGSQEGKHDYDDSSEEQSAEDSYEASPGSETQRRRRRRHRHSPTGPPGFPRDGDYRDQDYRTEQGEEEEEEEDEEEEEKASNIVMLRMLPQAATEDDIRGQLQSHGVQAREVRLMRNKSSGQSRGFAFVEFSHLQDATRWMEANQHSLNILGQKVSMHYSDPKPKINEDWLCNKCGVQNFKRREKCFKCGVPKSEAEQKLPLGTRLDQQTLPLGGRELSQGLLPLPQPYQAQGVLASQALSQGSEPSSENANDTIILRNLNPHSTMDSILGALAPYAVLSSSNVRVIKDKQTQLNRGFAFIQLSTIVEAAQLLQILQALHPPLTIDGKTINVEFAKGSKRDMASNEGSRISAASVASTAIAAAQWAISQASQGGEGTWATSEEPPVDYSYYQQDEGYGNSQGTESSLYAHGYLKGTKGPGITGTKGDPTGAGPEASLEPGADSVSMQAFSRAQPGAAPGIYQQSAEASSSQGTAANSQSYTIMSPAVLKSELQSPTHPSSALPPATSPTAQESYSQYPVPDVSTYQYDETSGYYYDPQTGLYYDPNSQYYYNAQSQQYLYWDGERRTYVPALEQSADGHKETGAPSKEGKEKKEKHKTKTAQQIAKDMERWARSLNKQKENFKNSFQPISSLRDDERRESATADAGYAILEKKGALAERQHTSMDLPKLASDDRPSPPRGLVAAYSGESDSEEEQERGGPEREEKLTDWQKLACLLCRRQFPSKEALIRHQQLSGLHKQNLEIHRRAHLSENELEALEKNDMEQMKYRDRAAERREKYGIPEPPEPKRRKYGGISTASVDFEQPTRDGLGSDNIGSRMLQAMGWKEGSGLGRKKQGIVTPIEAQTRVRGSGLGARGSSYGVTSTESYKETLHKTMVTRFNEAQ

Biological target: T1, Flag-CCAR1L (long isoform of cell cycle and apoptosis regulator 1) (human) (UniProt Q8IX12)
T1 sequence: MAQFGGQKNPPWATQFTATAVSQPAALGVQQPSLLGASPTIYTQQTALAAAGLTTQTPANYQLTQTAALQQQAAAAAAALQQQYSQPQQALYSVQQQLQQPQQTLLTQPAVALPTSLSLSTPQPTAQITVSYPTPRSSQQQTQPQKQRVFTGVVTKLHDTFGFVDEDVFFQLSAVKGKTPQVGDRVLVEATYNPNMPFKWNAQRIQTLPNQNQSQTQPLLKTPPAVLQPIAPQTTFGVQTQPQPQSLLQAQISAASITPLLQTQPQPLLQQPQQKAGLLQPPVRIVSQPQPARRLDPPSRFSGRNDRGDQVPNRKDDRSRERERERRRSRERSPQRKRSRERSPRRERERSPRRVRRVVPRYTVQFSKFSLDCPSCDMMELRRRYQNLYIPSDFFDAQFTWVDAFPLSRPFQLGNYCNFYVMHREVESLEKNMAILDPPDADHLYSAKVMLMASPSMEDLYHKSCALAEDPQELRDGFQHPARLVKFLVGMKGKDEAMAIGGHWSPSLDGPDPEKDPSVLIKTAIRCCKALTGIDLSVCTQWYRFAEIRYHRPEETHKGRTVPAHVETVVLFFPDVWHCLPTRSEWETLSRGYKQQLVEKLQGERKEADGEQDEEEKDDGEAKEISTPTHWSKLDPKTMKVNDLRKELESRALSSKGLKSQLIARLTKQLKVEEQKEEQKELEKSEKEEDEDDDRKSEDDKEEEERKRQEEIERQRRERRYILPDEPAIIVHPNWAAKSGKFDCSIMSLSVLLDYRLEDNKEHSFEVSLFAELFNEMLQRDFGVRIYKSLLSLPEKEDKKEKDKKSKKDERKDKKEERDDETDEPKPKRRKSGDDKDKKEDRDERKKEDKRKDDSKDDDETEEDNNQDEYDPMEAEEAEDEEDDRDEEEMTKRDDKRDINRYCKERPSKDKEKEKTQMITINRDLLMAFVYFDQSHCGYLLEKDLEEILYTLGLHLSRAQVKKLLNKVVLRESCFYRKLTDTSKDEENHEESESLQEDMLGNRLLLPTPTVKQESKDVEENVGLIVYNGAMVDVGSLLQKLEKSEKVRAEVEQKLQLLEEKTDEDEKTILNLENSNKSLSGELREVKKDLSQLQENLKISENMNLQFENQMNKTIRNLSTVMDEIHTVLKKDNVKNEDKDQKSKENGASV
Assay: affinity purification with mass spectrometry; anti-Flag immunoprecipitation (Protein A-G agarose) from A549 cells stably expressing Flag-CCAR1L or Flag-CCAR1S with endogenous CCAR1L/S depleted; IP buffer 50 mM Tris-HCl pH 8.0, 100 mM NaCl, 1 mM EDTA, 1% Nonidet P40; washed three times with TNE buffer; LC-MS/MS, 1% FDR

Molecule: RAB1A (from UniProt P62820 1-205)
- binding: binds

Molecule: RAB1B (from UniProt Q9H0U4 1-201)
- binding: binds

B1: GSDMA (endogenous) (protein, UniProt Q96QA5 1-445)
chain: MTMFENVTRALARQLNPRGDLTPLDSLIDFKRFHPFCLVLRKRKSTLFWGARYVRTDYTLLDVLEPGSSPSDPTDTGNFGFKNMLDTRVEGDVDVPKTVKVKGTAGLSQNSTLEVQTLSVAPKALETVQERKLAADHPFLKEMQDQGENLYVVMEVVETVQEVTLERAGKAEACFSLPFFAPLGLQGSINHKEAVTIPKGCVLAFRVRQLMVKGKDEWDIPHICNDNMQTFPPGEKSGEEKVILIQASDVGDVHEGFRTLKEEVQRETQQVEKLSRVGQSSLLSSLSKLLGKKKELQDLELALEGALDKGHEVTLEALPKDVLLSKEAVGAILYFVGALTELSEAQQKLLVKSMEKKILPVQLKLVESTMEQNFLLDKEGVFPLQPELLSSLGDEELTLTEALVGLSGLEVQRSGPQYMWDPDTLPRLCALYAGLSLLQQLTKAS
- binding: binds

More lines, now with the values ahead:

- binding: binds
Molecule: CDKN2A (endogenous) (human (endogenous in A549))

- binding: binds
Molecule: HMGB1 (from UniProt P09429 1-215)

- binding: binds
Molecule: RBM10 (endogenous) (from UniProt P98175 1-930)
